Experimental data as given in paper PMC11464564.
No constants are given. Whether binding was seen depends on the method and setting. In cells and extracts the contact can be indirect. A result given as binding can be weak or reduced; the word gives no strength.

B1: major outer membrane protein (MOMP) of C. jejuni CAMSA2147 (protein, UniProt P80672 23-424)
chain: TPLEEAIKDVDVSGVLRYRYDTGNFDKNFVNNSNLNNSKQDHKYRAQVNFSAAIADNFKAFVQFDYNAADGGYGANGIKNDQKGLFVRQLYLTYTNEDVATSVIAGKQQLNLIWTDNAIDGLVGTGVKVVNNSIDGLTLAAFAVDSFMAAEQGADLLEHSNISTTSNQAPFKVDSVGNLYGAAAVGSYDLAGGQFNPQLWLAYWDQVAFFYAVDAAYSTTIFDGINWTLEGAYLGNSLDSELDDKTHANGNLFALKGSIEVNGWDASLGGLYYGDKEKASTVVIEDQGNLGSLLAGEEIFYTTGSRLNGDTGRNIFGYVTGGYTFNETVRVGADFVYGGTKTEAANHLGGGKKLEAVARVDYKYSPKLNFSAFYSYVNLDQGVNTNESADHSTVRLQALYKF
B2: major outer membrane protein (MOMP) of C. jejuni RM1221 (protein, UniProt P80672 23-424)
chain: B1 chain

How the values were obtained:
[1] = target: RM1221 CJIE1 prophage H-fiber C-terminal domain (tail fiber protein H, CJE0231) (Campylobacter jejuni RM1221 (CJIE1 prophage)); assay: pull-down; Pierce His Protein Interaction Pull-Down Kit; 200 ug purified His-tagged H-fiber (co-expressed with the chaperone) immobilised on cobalt chelate resin as bait; C. jejuni CAMSA2147 or RM1221 cell lysate as prey; eluate run on SDS-PAGE and the band identified by LC-MS; only the target purified
[2] = target: CAMSA2147 CJIE1 prophage H-fiber C-terminal domain (tail fiber protein H) (Campylobacter jejuni CAMSA2147 (CJIE1 prophage)); assay: as above

Row | Binder | binding [1] | binding [2]
1 | B1 | no binding | binds
2 | B2 | binds | –
